# Measurements reported in PubChem BioAssay AID504804 (Drosophila RNAi Screening Center, 2011)
# Test: 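Fly genes whose loss lessens doxorubicin-driven cell death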 (primary screen)
# Cell system: Drosophila Kc cells
# Reagents: long dsRNA against Drosophila genes, 0.5 µg dsRNA per well
# Duration: 96 h (48 h knock-down, then 48 h drug)
# Treatment: doxorubicin 5 µg/ml for 48 h, added 48 h after dsRNA
# Measurement: 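Luminescent ATP counts per replicate, not normalised, reflecting viable cells after 48 h dsRNA knock-down followed by 48 h of 5 µg/ml doxorubicin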
# Scale: raw ATP luminescence: higher = more viable cells, protection from doxorubicin
# Hit rule: 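Active when both duplicate wells lie at least 2 SD above the plate mean and protection is confirmed by rescreening and independent dsRNAs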
# In all, the deposit lists about 19,000 reagents; this is an unselected part of those that have a named target and a result. Over the whole deposit, 47 (0.25%) were called active. 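Signals are raw, not normalised; exact z-scores behind calls not deposited; actives needed confirmation, so some wells reaching 2 SD are inactive.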 A plus sign joins genes that one reagent is predicted to hit. Reagent sequences are not shown.
target gene,dsRNA,SD above plate mean,"raw ATP luminescence, replicate 1","raw ATP luminescence, replicate 2",call
Pura,DRSC08891,,1.66e5,1.50e5,inactive
Pura,DRSC10862,,85800,94797,inactive
Pura,DRSC10864,,77570,90157,inactive
Pura,DRSC10865,,76237,70110,inactive
Pura,DRSC10866,,89800,84277,inactive
CG8343,DRSC04905,,65777,65323,inactive
CG14797,DRSC17955,,44320,52510,inactive
CG5815,DRSC14135,,65600,48070,inactive
CG13409,DRSC14585,,1.01e5,95180,inactive
hebe,DRSC05192,,98223,88327,inactive
hebe,DRSC06605,,91647,44527,inactive
Mpcp2,DRSC11226,,40120,43120,inactive
Marcal1,DRSC02718,,27763,37983,inactive
atilla,DRSC02971,,55690,59137,inactive
CG7966,DRSC16356,,45663,26620,inactive
CG13004,DRSC19523,,3.54e5,3.25e5,inactive
CG2871,DRSC18230,,40480,41190,inactive
CRMP,DRSC12073,,97637,52707,inactive
CRMP,DRSC12345,,53907,22437,inactive
CG10809,DRSC09802,,69333,58667,inactive
lin-28,DRSC10261,,53430,72770,inactive
CG15452,DRSC20523,,3.60e5,3.70e5,inactive
DIP1,DRSC20818,,3.12e5,3.02e5,inactive
CG14154,DRSC10156,,81853,53097,inactive
CG43386,DRSC17980,,3.11e5,3.02e5,inactive
Bsg,DRSC01010,,2.07e5,1.88e5,inactive
Bsg,DRSC01011,,3.36e5,3.45e5,inactive
abd-A,DRSC13179,,65470,74806,inactive
abd-A,DRSC16897,,14780,15580,inactive
Andorra,DRSC19475,,3.65e5,3.49e5,inactive
CG1105,DRSC12528,,42623,25753,inactive
CG1602,DRSC06601,,41807,81910,inactive
CG17768 + LSm-4,DRSC02845,,35520,69103,inactive
lft,DRSC02236,,46417,81277,inactive
nSyb,DRSC08727,,65277,79597,inactive
CG5418,DRSC02857,,68217,83047,inactive
CG7886,DRSC16333,,68670,67040,inactive
Cyt-c-p,DRSC03310,,54533,60127,inactive
CG11975,DRSC14452,,80143,38073,inactive
His4r,DRSC16703,,36230,40580,inactive
CG9541,DRSC03257,,43370,75363,inactive
nrv3,DRSC03097,,1.94e5,2.34e5,inactive
Lpin,DRSC07241,,76587,55863,inactive
BBS1,DRSC10196,,1.93e5,1.93e5,inactive
sog,DRSC20379,,2.93e5,2.20e5,inactive
Rme-8,DRSC07054,,89527,77973,inactive
smog,DRSC00334,,21227,37313,inactive
smog,DRSC00335,,14297,23273,inactive
PGRP-LD + Cralbp + Pmi,DRSC09743,,67913,80133,inactive
CG7694,DRSC16288,,74730,63830,inactive
Fs(2)Ket,DRSC03328,,38943,45830,inactive
CG32551,DRSC19259,,2.25e5,2.67e5,inactive
Gr77a,DRSC11446,,29897,56797,inactive
CG43999,DRSC14605,,58760,56940,inactive
shu,DRSC04484,,68277,65203,inactive
stac,DRSC13693,,2.30e5,2.10e5,inactive
stac,DRSC14392,,60360,50970,inactive
mRpL55,DRSC14764,,35090,39210,inactive
drn,DRSC15147,,60970,61410,inactive
CG17959,DRSC18142,,63800,62480,inactive
CG11777,DRSC06081,,42810,77487,inactive
CG10116,DRSC09700,,25407,27653,inactive
Best2,DRSC09712,,80397,94090,inactive
CG15225,DRSC04232,,50670,49680,inactive
ab,DRSC03478,,10463,14283,inactive
CG42394 + CG6567,DRSC12821,,27277,69147,inactive
Nup160 + RfC38,DRSC01997,,1.15e5,71927,inactive
CG42694,DRSC03955,,78100,69910,inactive
smo,DRSC00837,,95480,72970,inactive
CG9631,DRSC14137,,62507,24520,inactive
CG15571,DRSC18059,,47310,54740,inactive
Exo84,DRSC15965,,45420,48970,inactive
viaf,DRSC10326,,37980,36763,inactive
CG9410 + CG15908,DRSC04976,,45043,63507,inactive
CG9410 + CG15908,DRSC05001,,56220,51467,inactive
PHDP,DRSC04635,,52877,72877,inactive
DMAP1,DRSC06044,,58343,57143,inactive
l(2)k09913,DRSC04699,,65220,57743,inactive
Cyp6a16Psi (retired record),DRSC03307,,29960,25793,inactive
CG9240,DRSC20177,,3.73e5,3.20e5,inactive
CG5539,DRSC04510,,38347,45157,inactive
trbl,DRSC11901,,70040,58183,inactive
Polr1E,DRSC14506,,64510,73050,inactive
Polr1E,DRSC15358,,47537,40737,inactive
Sh,DRSC19214,,33397,42990,inactive
Sh,DRSC19220,,2.49e5,2.53e5,inactive
Sh,DRSC19785,,3.53e5,3.30e5,inactive
Sh,DRSC20055,,3.83e5,3.72e5,inactive
alpha-Catr,DRSC04669,,45497,58113,inactive
CG10898,DRSC14279,,57417,28267,inactive
CG31467,DRSC16048,,57600,43673,inactive
CG8301,DRSC16405,,58270,54273,inactive
Polr3F,DRSC15785,,71980,54460,inactive
Lcp4,DRSC07458,,43987,65673,inactive
CG12355,DRSC09381,,1.89e5,1.67e5,inactive
CG12355,DRSC09883,,43467,37437,inactive
RhoGAP15B,DRSC19925,,3.24e5,2.59e5,inactive
mil,DRSC15696,,60540,45620,inactive
CG3491,DRSC01934,,63363,64780,inactive
Glt,DRSC03333,,1.00e5,71513,inactive
CG13239,DRSC11694,,64330,64077,inactive
HP4,DRSC10958,,43057,36517,inactive
Eig71Eh,DRSC11155,,36903,41283,inactive
nonA-l,DRSC17017,,67270,67840,inactive
mnd,DRSC11370,at least 2 SD above plate mean,1.04e5,82583,active
CG33270,DRSC10584,,82003,48340,inactive
oys,DRSC05203,,94467,83110,inactive
oys,DRSC06751,,63537,51433,inactive

Only “raw ATP luminescence, replicate 2”, for 16 of the entries above:
drn [DRSC15147] = 61410
CG17959 [DRSC18142] = 62480
CG11777 [DRSC06081] = 77487
CG10116 [DRSC09700] = 27653
Best2 [DRSC09712] = 94090
CG15225 [DRSC04232] = 49680
ab [DRSC03478] = 14283
CG42394 + CG6567 [DRSC12821] = 69147
Nup160 + RfC38 [DRSC01997] = 71927
CG42694 [DRSC03955] = 69910
smo [DRSC00837] = 72970
CG9631 [DRSC14137] = 24520
CG15571 [DRSC18059] = 54740
Exo84 [DRSC15965] = 48970
viaf [DRSC10326] = 36763
CG9410 + CG15908 [DRSC04976] = 63507
